Laboratory results taken from patent publication US20220401585A1 (RIGSHOSPITALET, priority 2019, published 2022).

Experiment: general procedure: Fmoc solid-phase peptide synthesis; Fmoc Ser(t-Bu) TentaGel S PHB 0.25 mmol/g; HBTU/HOAt/DIEA; HATU/HOAt/DIEA for the dye
Conditions: whole synthesis, scale 0.1 mmol

With “IRDye800-Glu-Glu-O2Oc-O2Oc-Asp-Cha-Phe-D-ser-D-arg-Tyr-Leu-Trp-Ser-OH” the “crude LC-MS purity” value (UHPLC-MS (C4 and C18 columns)) was “above 80%”, the “final LC-MS purity” value (UHPLC-MS (C4 and C18 columns)) was 98% and the isolated mass was 2 mg.
